Laboratory results taken from doi:10.1101/2023.12.19.571263.
Results are given in words; binding and its absence hold for the method and conditions named. In cells and extracts the contact can be indirect. Some results given as binding are weak or reduced against the parent protein; the word gives no strength.

Chains of the proteins cited; added tags and fusions are not shown.
UniProt Q13263: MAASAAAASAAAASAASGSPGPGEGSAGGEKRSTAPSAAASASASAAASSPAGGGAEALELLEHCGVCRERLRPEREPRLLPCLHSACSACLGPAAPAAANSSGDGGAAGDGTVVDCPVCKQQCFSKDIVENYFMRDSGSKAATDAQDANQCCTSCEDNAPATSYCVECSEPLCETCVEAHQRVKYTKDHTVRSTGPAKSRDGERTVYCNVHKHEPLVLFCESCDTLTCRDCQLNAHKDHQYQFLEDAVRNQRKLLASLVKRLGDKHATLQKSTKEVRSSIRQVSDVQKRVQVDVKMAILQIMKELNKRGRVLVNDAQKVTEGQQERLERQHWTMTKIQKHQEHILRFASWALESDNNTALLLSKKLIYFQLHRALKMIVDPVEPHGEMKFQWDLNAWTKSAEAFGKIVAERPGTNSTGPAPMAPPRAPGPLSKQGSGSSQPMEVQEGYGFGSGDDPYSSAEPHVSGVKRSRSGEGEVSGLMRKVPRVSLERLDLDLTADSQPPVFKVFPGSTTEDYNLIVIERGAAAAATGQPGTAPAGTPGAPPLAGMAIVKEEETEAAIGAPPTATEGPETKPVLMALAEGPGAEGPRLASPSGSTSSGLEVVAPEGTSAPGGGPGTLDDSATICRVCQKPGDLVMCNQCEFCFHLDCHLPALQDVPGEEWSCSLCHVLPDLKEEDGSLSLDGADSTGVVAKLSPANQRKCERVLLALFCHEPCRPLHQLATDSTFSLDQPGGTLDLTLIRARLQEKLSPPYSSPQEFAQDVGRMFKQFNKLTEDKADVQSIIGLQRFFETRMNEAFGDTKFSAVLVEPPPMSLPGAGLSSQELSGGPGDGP

Target: T1, YARS, cytoplasmic Tyrosyl (Y) tRNA synthetase (human (endogenous in MCF7 and LS174T)) (UniProt P54577)
T1 sequence: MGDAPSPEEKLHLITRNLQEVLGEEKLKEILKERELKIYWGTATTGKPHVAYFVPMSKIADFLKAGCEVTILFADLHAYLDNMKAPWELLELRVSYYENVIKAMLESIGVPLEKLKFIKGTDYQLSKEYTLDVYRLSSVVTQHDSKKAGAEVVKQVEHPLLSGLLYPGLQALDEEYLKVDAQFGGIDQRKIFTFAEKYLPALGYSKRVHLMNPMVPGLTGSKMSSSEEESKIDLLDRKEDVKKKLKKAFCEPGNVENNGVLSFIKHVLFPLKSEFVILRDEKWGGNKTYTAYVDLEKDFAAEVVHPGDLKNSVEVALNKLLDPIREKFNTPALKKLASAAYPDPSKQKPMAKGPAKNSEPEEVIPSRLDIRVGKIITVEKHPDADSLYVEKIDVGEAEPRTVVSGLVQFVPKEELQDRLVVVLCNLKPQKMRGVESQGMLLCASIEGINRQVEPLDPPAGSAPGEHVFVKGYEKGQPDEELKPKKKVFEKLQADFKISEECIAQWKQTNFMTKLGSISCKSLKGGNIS
Assay: co-IP

Trim28 transcriptional regulator (from UniProt Q13263 1-835)
binding: binds
